In patent publication US11639325B2, “Compositions of polyhydroxylated benzophenones and methods of treatment of neurodegenerative disorders” (Massachusetts Institute of Technology, priority 2015, dated 2023):

System: 5XFAD mice
Experiment: RNA-Seq of hippocampi of treated 5XFAD mice and gene enrichment analysis
Type: in vivo, mouse
Conditions: 50 mg/kg i.p. for 2 weeks

O=C(c1cc(O)c(O)c(O)c1)c1ccc(O)c(O)c1O [exifone]
enrichment of upregulated genes (ToppGene): enriched for those involved in cytokine responses | differentially expressed genes (p-value <0.05): 1,383 genes | downregulated genes (p-value <0.05): 599 genes | upregulated genes (p-value <0.05): 784 genes
